The record followed here is PMC5996148.

Some test systems named below: Gremlin-1 (human); HAAO (human); HAS3 (human); HAVCR2 (human); HAX1 (human); HBD (human).
What all share (test): protein microarray (ProtoArray v5.0), streptavidin-Alexa Fluor 647
Details in all cases: 3'-biotin; 20 mM Tris (pH 7.5), 5 mM MgCl2, 100 mM KCl, 0.1% Tween-20, A/T-rich and random oligonucleotide blockers; temperature not stated; high values mean tight binding

In assay [1] the test system is Granulocyte colony-stimulating factor (human).
Assay [2] has as its system Guanine nucleotide exchange factor for Rab3A (human).
The subject of assay [3] is Guanine nucleotide-binding protein subunit alpha-11 (human).
Assay [4] relates to Guanylate cyclase activator 2B (human).

Several values for one entry are separate records, joined by “and”; a condition that tells them apart may be missing. Equal values may be shown once. This is one part of the list.

In the case of “GGGAGGCTGAGGCAGG [G4-1 biotinylated (PQS2)]”, the binding signal was -0.275 z-score in assay [1]; -0.319 z-score in the assay with Gremlin-1 (human); -0.333 z-score in assay [2]; -0.337 z-score in assay [3]; -0.328 z-score in [4]; -0.358 z-score in the assay on HAAO (human). Besides, the binding signal is -0.323 z-score in the assay with HAS3 (human); -0.358 z-score in the assay on HAVCR2 (human); -0.321 z-score and -0.346 z-score in the assay with HAX1 (human); -0.319 z-score in the assay on HBD (human).
